In publication PMC5663739:
No constants are given. Whether binding was seen depends on the method and setting. Binding seen in cells or lysates may run through a third protein. A yes stands for co-enrichment or nearness to the bait. Other partners may have been found. No binding means not detected with the bait. Tags and fused reporters may be left off the sequences shown.

By UniProt entry, the sequences of proteins in these tests, tags left out.
UniProt Q8VDS3: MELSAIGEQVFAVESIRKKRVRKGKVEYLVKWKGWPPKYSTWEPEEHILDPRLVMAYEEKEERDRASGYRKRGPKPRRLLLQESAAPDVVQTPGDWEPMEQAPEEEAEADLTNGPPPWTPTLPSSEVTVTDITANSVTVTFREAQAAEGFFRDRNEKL
UniProt P59178: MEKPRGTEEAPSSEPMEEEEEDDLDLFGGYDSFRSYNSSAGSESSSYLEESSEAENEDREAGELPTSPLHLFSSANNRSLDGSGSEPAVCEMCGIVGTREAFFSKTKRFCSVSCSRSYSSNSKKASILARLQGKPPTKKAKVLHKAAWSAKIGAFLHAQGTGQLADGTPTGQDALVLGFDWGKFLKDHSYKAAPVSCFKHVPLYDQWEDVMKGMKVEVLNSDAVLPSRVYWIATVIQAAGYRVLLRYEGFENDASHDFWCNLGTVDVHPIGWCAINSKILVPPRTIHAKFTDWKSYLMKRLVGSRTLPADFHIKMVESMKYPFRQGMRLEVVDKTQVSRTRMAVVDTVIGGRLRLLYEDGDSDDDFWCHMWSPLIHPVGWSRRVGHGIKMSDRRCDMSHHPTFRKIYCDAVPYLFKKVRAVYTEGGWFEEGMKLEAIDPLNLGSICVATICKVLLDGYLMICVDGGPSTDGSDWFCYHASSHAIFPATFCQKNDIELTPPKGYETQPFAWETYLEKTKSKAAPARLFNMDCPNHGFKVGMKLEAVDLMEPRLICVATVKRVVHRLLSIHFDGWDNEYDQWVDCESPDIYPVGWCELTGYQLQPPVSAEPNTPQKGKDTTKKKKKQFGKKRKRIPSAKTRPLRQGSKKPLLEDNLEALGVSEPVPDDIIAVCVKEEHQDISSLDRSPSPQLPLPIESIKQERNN
UniProt A2AWL7: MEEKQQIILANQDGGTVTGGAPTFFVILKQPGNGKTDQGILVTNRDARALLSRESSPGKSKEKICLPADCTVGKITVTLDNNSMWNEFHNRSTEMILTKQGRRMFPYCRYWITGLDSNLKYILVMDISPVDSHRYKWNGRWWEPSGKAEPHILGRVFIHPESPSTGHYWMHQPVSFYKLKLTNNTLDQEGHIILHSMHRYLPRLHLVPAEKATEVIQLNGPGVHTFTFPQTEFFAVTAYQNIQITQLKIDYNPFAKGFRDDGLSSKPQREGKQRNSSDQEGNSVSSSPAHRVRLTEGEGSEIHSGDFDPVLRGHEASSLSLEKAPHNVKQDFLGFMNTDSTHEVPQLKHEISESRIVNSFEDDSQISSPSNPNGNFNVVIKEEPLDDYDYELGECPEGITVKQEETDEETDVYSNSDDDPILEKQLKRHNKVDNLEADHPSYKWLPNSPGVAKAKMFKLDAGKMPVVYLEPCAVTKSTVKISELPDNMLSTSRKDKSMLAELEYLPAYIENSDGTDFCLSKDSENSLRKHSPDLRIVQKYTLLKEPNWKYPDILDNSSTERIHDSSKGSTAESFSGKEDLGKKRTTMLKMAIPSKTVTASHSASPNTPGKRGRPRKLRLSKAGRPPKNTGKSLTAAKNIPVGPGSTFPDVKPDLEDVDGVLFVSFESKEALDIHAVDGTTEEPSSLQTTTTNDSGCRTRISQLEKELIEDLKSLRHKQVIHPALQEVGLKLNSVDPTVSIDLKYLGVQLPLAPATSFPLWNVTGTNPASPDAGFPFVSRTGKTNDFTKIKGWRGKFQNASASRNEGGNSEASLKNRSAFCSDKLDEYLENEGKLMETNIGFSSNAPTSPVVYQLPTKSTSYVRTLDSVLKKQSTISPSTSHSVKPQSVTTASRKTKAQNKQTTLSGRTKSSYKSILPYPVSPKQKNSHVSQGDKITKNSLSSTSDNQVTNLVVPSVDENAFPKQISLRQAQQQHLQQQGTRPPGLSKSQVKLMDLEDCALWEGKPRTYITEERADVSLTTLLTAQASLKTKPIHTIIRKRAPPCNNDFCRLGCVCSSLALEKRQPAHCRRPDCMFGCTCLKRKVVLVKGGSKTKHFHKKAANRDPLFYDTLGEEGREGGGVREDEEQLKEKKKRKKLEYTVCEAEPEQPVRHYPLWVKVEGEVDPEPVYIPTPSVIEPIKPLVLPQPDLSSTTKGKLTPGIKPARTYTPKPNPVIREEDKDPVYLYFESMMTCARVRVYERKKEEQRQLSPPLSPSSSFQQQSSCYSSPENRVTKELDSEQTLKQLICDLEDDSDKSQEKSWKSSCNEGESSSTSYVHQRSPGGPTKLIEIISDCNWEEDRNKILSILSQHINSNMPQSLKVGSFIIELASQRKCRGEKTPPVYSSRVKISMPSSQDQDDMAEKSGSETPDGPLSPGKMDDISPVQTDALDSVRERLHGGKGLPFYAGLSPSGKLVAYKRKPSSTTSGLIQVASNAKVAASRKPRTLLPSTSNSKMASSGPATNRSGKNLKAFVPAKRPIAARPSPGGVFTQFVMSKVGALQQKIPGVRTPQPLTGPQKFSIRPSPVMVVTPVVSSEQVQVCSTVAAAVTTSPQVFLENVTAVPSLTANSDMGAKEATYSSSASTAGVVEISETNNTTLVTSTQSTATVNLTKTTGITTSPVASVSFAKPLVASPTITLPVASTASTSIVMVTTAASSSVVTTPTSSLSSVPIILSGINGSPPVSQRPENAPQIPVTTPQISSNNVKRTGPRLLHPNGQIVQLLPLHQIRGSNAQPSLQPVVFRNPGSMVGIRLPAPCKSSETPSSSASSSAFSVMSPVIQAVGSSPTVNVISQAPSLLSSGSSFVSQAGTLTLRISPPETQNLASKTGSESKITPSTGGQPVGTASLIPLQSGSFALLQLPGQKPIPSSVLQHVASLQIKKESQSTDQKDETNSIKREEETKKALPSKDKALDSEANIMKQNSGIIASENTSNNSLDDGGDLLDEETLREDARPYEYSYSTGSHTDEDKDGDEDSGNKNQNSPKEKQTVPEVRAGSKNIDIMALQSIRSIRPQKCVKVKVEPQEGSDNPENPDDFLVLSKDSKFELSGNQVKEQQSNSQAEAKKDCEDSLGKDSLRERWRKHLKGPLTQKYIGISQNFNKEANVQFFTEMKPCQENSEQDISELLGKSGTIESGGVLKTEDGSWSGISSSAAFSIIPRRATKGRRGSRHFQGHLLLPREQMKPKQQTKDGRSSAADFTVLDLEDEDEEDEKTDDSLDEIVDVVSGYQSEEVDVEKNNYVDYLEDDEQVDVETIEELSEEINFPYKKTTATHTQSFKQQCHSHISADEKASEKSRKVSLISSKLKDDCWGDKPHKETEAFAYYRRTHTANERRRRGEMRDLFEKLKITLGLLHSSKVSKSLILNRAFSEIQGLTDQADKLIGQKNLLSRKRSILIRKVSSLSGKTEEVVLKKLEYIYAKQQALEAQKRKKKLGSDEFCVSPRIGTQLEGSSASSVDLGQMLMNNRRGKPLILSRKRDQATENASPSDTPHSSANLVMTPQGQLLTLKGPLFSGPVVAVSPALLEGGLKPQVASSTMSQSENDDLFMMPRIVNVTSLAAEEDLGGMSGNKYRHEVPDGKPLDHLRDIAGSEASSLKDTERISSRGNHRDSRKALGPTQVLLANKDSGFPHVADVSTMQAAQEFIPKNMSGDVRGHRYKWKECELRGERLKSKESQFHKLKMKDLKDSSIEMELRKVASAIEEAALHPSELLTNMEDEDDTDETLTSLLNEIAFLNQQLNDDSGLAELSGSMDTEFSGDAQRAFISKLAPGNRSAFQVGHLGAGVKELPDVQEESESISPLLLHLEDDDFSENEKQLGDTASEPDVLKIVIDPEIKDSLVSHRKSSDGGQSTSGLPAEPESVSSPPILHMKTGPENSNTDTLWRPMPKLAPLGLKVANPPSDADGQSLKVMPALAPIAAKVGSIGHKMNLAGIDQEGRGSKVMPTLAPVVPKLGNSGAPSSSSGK
UniProt Q9CQJ4: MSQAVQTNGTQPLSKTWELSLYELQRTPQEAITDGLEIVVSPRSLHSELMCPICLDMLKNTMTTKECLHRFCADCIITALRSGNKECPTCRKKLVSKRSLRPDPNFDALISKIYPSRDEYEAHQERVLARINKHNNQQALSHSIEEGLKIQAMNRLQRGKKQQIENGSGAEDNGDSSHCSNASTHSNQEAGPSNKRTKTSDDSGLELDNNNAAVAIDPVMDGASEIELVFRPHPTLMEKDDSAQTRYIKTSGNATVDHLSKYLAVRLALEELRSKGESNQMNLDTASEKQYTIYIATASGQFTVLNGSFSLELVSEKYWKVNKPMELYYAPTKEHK

T1: CBX6-3×FLAG (mouse) (UniProt Q9DBY5)
T1 sequence: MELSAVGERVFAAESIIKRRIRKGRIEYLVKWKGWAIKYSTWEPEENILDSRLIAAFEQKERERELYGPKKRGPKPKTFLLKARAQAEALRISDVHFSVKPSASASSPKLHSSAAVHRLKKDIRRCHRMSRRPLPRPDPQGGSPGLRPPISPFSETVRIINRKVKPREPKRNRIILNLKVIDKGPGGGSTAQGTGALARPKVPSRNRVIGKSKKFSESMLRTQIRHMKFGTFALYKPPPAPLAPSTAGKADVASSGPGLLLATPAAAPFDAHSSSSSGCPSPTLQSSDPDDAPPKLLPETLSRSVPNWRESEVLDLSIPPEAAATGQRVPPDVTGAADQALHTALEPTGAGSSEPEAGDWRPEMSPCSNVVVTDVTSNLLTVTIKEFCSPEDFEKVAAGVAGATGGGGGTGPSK

B1: PCGF6 (protein, UniProt Q99NA9 1-353)
chain: MDEAETDATENKRASEAKRASAMPPPPPPPPPISPPALIPAPAAGEEGPASLGQAGAAGCSRSRPPALEPERSLGRLRGRFEDYDEELEEEEEMEEEEEEEEEMSHFSLRLESGRADSEDEEERLINLVELTPYILCSICKGYLIDATTITECLHTFCKSCIVRHFYYSNRCPKCNIVVHQTQPLYNIRLDRQLQDIVYKLVINLEEREKKQMHDFYKERGLEVPKPAAPQPVPSSKGKTKKVLESVFRIPPELDMSLLLEFIGANEDTGHFKPLEKKFVRVSGEATIGHVEKFLRRKMGLDPACQVDIICGDHLLERYQTLREIRRAIGDTAMQDGLLVLHYGLVVSPLKIT
B2: RYBP (protein, UniProt Q8CCI5 1-228)
chain: MTMGDKKSPTRPKRQAKPAADEGFWDCSVCTFRNSAEAFKCSICDVRKGTSTRKPRINSQLVAQQVAQQYATPPPPKKEKKEKVEKPDKEKPEKDKDISPSVTKKNTNKKTKPKSDILKDPPSEANSIQSANATTKTSETNHTSRPRLKNVDRSTAQQLAVTVGNVTVIITDFKEKTRSSSTSSSTVTSSAGSEQQNQSSSGSESTDKGSSRSSTPKGDMSAVNDESF
B3: PHC1 (protein, UniProt Q64028 1-1010)
chain: METESEQNSSSTNGSSSSGASSRPQIAQMSLYERQAVQALQALQRQPNAAQYFHQFMLQQQLSNAQLHSLAAVQQATIAASRQASSPNSSTAQQQTATTQASMNLATTSAAQLISRSQSVSSPSATTLTQSVLLGNTTSPPLNQSQAQMYLRPQLGNLLQVNRTLGRNVPLASQLILMPNGAVAAVQQEVPPAQSPGVHADADQVQNLAVRNQQASAQGPQMPGSTQKAIPPGASPVSGLSQTSSQALAVAQASSGASGQSLNLSQAGGGSGNSLPGSMGPGGGGQAPGGLGQLPSSGLTGGSCPRKGTGVVQPLPAAQTVTVSQGSQTEAESAAAKKAEADGSGQQSVGMNLTRTATPAPSQTLISSATYTQIQPHSLIQQQQQIHLQQKQVVIQQQIAIHHQQQFQHRQSQLLHTATHLQLAQQQQQQQQQQQQQQQQQQQQQQGTTLTAPQPPQVPPTQQVPPSQSQQQAQTLVVQPMLQSSPLTLPPEPTSKPPIPIQSKPPVAPIKPPQLGAAKMSATQQPPPHIPVQVVGTRQPGSAQAQALGLAQLAAAVPTPRGITGAVQPGQAHLASSPPSSQAAPGALQECPPALAAGMTLAPVQGTAHVVKGGPTASSPVVAQVPAAFYMQSVHLPGKAQTLAVKRKAESEEERDDLSALASVLPTKASPAAESPKVIEEKNSLGEKAEPVASLNANPPNSDLVALAPTPSAPPPTLALVSRQMGDSKPPQAIVKPQILTHIIEGFVIQEGAEPFPVGCSQFLKETKKPLQAGLPTGLNESQPSGPLGGDSPSVELEKKANLLKCEYCGKYAPAEQFRGSKRFCSMTCAKRYNVSCSHQFRLKRKKMKEFQEASYARVRRRGPRRSSSDIARAKIQGKRHRGQEDSSRGSDNSSYDEALSPTSPGPLSVRAGHGERDLGNTITTPSTPELQGINPVFLSSNPSQWSVEEVYEFIASLQGCQEIAEEFRSQEIDGQALLLLKEEHLMSAMNIKLGPALKICAKINVLKET

What follows are molecules tested against T1, CBX6-3×FLAG (mouse) (assay: affinity purification with mass spectrometry; anti-FLAG beads on extracts of cryomilled CBX6-3×FLAG or empty control ESCs; 20 mM HEPES pH 7.4, 400 mM NaCl, 0.5% Triton X-100; 30 min at 4 °C; three biological replicates; label-free quantitative MS, fold-change ≥2, FDR 0.05).

binding | Molecule
no binding | CBX7 (from UniProt Q8VDS3 1-158)
binds | L3MBTL2 (from UniProt P59178 1-703)
binds | MGA (from UniProt A2AWL7 1-3003)
binds | RING1B (from UniProt Q9CQJ4 1-336)
binds | B1
no binding | B2
binds | B3
